This note sets out measurements from publication doi:10.64898/2025.12.13.693833 (bioRxiv, 2025).

Amino acid sequences for entries named in this document (tags omitted). A change or cut given only in a name is not applied to a line headed by its entry. Residues count along the entry.
UniProt P30153: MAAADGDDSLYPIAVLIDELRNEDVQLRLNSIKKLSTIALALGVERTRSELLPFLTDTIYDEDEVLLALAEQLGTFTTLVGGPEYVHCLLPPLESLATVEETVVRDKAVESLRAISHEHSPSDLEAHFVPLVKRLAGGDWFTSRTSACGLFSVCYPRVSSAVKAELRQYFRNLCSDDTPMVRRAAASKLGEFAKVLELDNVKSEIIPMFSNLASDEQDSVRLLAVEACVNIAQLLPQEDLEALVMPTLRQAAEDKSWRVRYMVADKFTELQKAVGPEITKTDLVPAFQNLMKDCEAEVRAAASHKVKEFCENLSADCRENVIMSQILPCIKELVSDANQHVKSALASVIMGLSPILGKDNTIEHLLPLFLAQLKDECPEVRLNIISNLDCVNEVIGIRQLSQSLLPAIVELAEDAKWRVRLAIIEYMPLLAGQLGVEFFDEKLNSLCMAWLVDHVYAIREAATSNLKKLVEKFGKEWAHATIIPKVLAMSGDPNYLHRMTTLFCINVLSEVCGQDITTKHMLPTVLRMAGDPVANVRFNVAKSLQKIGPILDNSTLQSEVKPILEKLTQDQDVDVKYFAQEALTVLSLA
UniProt P67775, residues 2-309: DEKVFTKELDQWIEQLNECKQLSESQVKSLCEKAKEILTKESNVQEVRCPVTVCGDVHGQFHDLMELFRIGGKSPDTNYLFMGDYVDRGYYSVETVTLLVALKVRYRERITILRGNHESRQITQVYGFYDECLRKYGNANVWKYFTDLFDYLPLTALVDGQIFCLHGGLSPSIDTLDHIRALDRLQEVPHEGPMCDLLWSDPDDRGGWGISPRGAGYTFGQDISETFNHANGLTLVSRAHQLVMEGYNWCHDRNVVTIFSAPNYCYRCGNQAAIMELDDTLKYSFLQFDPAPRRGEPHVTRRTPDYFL

Positions count from the first letter of the chain named. These are yes or no findings as the source states them, for the method shown. Sequences can lack the tags named with a protein.

The target in experiment [1] is T1, GST-ENSA^WT-His6 (human) (UniProt O43768).
T1 sequence: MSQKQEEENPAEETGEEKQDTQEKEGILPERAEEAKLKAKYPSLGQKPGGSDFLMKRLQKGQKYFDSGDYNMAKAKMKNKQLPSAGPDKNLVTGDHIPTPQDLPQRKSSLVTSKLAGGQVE
In words: BLI. (BLI is a label-free optical method that tracks binding on a fibre tip over time.)

Experiment [2] concerns the target T2, GST-ENSA^S67D-His6 (human) (UniProt O43768).
T2 sequence: T1 sequence with S67D
As to the kind of experiment: BLI.

As for “PP2A-AC core enzyme (from UniProt P30153 1-589; P67775 2-309) (complex)”, the binding entry in experiment [1] and in experiment [2] was “no binding” throughout.

Regarding “PP2A Cα subunit (from UniProt P67775 2-309) (enzyme)”, the binding entry in experiment [1] was “no binding”.
